One test concerns the target CFP-Orai2 (UniProt Q96SN7). The test can be described thus: FRET or BRET. In general terms: Bioluminescence resonance energy transfer reports proximity on the nanometre scale.
In a further test the target is CFP-Orai1 (UniProt Q96D31). The test is described as follows: FRET or BRET.

Sequences of proteins named here, by UniProt entry; tags and fusion partners are left off. Residues count along the entry.
UniProt Q96SN7: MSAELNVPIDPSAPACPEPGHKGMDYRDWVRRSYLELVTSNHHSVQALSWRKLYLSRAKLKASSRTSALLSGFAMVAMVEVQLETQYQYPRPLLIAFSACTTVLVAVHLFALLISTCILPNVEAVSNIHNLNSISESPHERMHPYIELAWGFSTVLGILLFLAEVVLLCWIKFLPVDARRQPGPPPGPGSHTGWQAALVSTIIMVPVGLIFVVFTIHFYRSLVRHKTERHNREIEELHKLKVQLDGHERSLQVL
UniProt Q96D31: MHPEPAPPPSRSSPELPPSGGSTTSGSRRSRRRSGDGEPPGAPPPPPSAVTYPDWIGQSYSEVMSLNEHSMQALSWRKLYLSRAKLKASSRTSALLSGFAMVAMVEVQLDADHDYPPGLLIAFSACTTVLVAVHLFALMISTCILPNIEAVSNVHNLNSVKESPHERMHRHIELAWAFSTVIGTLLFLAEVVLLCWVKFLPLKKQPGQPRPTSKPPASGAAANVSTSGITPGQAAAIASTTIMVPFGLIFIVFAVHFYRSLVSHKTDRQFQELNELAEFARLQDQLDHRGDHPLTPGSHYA
UniProt Q13586, residues 23-685: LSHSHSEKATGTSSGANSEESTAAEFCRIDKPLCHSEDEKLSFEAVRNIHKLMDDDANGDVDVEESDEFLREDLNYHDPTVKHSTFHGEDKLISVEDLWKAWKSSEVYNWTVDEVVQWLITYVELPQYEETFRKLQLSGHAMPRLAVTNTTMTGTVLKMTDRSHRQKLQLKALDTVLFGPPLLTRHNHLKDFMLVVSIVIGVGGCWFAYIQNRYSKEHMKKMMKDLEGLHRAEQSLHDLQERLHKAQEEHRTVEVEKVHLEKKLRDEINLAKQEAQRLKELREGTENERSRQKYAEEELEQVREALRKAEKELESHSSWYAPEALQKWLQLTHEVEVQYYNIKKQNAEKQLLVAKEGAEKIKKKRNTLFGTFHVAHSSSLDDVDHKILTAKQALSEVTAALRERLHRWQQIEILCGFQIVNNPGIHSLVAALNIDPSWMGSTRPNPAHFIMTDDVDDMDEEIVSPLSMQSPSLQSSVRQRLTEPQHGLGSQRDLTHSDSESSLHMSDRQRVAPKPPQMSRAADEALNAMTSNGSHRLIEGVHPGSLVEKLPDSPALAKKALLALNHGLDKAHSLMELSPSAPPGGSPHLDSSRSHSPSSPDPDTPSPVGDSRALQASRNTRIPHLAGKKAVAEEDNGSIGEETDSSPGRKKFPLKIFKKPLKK
UniProt Q9P246, residues 15-746: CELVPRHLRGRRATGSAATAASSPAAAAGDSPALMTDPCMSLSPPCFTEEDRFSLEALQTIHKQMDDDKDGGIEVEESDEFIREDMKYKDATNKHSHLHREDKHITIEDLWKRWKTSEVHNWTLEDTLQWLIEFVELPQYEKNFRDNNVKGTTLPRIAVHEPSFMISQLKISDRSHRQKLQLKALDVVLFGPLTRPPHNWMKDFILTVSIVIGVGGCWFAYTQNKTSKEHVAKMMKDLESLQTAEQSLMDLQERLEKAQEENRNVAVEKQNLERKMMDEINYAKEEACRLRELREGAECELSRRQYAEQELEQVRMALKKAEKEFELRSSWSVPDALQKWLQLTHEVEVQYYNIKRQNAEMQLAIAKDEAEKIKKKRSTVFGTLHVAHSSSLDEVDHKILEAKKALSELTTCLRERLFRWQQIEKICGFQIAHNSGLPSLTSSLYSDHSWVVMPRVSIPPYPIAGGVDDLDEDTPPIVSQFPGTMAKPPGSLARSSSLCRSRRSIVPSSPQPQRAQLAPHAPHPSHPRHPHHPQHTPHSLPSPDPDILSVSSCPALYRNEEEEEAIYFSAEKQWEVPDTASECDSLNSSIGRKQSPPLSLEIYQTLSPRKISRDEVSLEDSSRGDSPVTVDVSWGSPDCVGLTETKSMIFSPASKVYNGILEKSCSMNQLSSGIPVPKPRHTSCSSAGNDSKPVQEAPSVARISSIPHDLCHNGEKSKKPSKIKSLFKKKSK

Experimental findings from paper doi:10.1101/2020.10.04.325480 are described below.

Results are given in words; binding and its absence hold for the method and conditions named. In cells and extracts the contact can be indirect. Some results given as binding are weak or reduced against the parent protein; the word gives no strength.

Consider STIM1-YFP (from UniProt Q13586 23-685), for which the binding result in the test with CFP-Orai2 is given as “binds”.
For STIM2-YFP (from UniProt Q9P246 15-746), the binding entry with CFP-Orai1 and with CFP-Orai2 was “binds” throughout.
